# Test results reported in PubChem BioAssay AID1347075 (National Center for Advancing Translational Sciences (NCATS), 2019).
# Among all 400,000 compounds or so, about 5,500 (1.4%) were called active. This list was built around the results that the source calls inconclusive (neither active nor inactive); the mix of calls is not that of the screen. Calls follow the shape of the dose curve; as a rule, active = well fitted cell-killing curve with a large enough effect; inconclusive = small, poorly fitted or top-dose-only effect, or effect the other way; inactive = flat fitted curve, though single readings scatter. Where the call is inconclusive, the potency comes from a doubtful curve fit.
# Experiment: qHTS assay for MDR1-selective chemotherapeutics: Primary screen using the parental adenocarcinoma cell KB-3-1; also: nearly all actives have a fitted effect of over 60% in size
# Conditions: KB-3-1 viability, CellTiter-Glo ATP luminescence, 72 h; activity change, negative = cytotoxic: at 46.1 µM (top of the series)
# Method in brief: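 Luminescent ATP read-out (CellTiter-Glo) measures survival of drug-naive KB-3-1 cells after 72 h compound exposure at 37 °C. Titration series was screened from lowest to highest concentration, with DMSO vehicle plates as background controls.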
# % is scaled to controls: 0 for no effect and ±100 for the full control effect; potency is read from the fitted curve at half-maximal effect.
Structure (SMILES),Potency,"activity change, negative = cytotoxic"
Cn1nc(C(F)(F)F)c(-c2ccc(F)cc2)c1NC(=O)Nc1ccc(F)cc1,"inconclusive: 23.1 µM [cytotoxic, single point]",
O=C(NCCO)c1ccc(-c2nnc(Nc3ccc(OC(F)(F)Cl)cc3)c3ccccc23)cc1,inactive,
COc1ccc2c(-c3cc4ccc(OCc5ccc(F)cc5)cc4oc3=O)cc(=O)oc2c1,active: 7.31 µM,
COc1ccc2[nH]c3c(=O)n(/N=C/[C@H]4C(C)C=C(C)CC4C)c(=O)[nH]c3c2c1 (some centres not stated),"inconclusive: 29.1 µM [cytotoxic, single point]",
CCc1cccc2c(C(=S)N3CCOCC3)c[nH]c12,inactive,
Oc1ccc(-c2cnc3ccccc3n2)cc1,"inconclusive: 29.1 µM [cytotoxic, single point]",
Cc1c(NC(=O)/C=C/C(=O)O)cccc1[N+](=O)[O-],"inconclusive: 29.1 µM [cytotoxic, single point]",
Cc1[nH]n(-c2ccccc2)c(=O)c1C(=O)c1cccc(F)c1,"inconclusive: 20.6 µM [cytotoxic, single point]",
O=C1/C(=C\c2ccc(O)c(O)c2)SC(=S)N1Cc1ccccc1,"inconclusive: 29.1 µM [cytotoxic, single point]",
COc1ccc(/C(C)=N/NC(=O)CNC(=O)/C=C\c2ccco2)cc1,"inconclusive: 23.1 µM [cytotoxic, partial curve, poor fit]",
CC(C)N(CCO)Cc1nc(C(c2ccccc2)c2ccccc2)no1,,inconclusive: -19.1%
COc1ccc(O)c(/C=N/N=C2/C(=O)Nc3ccccc32)c1,"inconclusive: 0.0326 µM [cytotoxic, full curve]",
CNC(=O)c1cc2c(-c3ccccc3)nn(C)c2s1,inactive,
O=C(C1CCCN(c2ncnc3c2nc2n3CCCCC2)C1)N1CCN(c2ccc(F)cc2)CC1 (configuration not stated),"inconclusive: 29.1 µM [cytotoxic, single point]",
NC(=O)N1N=C2/C(=C/c3ccccc3)CCCC2C1c1ccccc1 (configuration not stated),"inconclusive: 23.1 µM [cytotoxic, single point]",
CCOc1ccc2c(c1)NC(c1ccc(OCC)c(OCC)c1)=NC(c1ccc(F)cc1)=N2,"inconclusive: 0.259 µM [cytotoxic, partial curve, poor fit]",
COc1ccccc1N(Cc1ccccc1)S(=O)(=O)c1cccc(C(=O)Nc2ccccn2)c1,"inconclusive: 29.1 µM [cytotoxic, single point]",
CCC(C(=O)N1CCN(Cc2ccc3c(c2)OCO3)CC1)n1c(=O)[nH]c2ccccc2c1=O (configuration not stated),,inconclusive: -18.7%
O=C(NCc1ccccc1)C(c1cccnc1)N(C(=O)c1ccccn1)c1ccc(F)cc1 (configuration not stated),"inconclusive: 20.6 µM [rising, single point]",
CCN(CC)CCNc1ccc(CO)c2oc3cc(Cl)ccc3c(=O)c12,"inconclusive: 16.4 µM [cytotoxic, single point]",
COc1cc(C(=O)NC(=S)NNC(=O)c2cnccn2)cc(OC)c1OC,"inconclusive: 29.1 µM [cytotoxic, single point]",

Structure (SMILES),Potency,"activity change, negative = cytotoxic"
Cc1ccc(NC(=O)Cn2nc(C(F)(F)F)c3c2CCCC3)cc1,,inconclusive: -17.7%
Cn1ncc(Cl)c1C(=O)NC(=S)Nc1sc2c(c1C#N)CCCCC2,,inconclusive: -38% [cytotoxic]
CC1=C(C(=O)N2CCOCC2)CC(CC(=O)NCc2cccc3ccccc23)C(=O)N1Cc1ccc(C(C)(C)C)cc1 (configuration not stated),"inconclusive: 29.1 µM [cytotoxic, single point]",
O=C(COC(=O)c1ccc(F)cc1)NCc1ccc(F)cc1,"inconclusive: 9.2 µM [rising, partial curve]",
CCOc1ccc(CCNC(=O)c2c3c(nc4ccccc24)C(=O)N(C2CCCCC2)C3)cc1,inactive,
C=CCN1CCN(C(c2ccc(Cl)cc2)c2nnnn2CCc2ccc(OC)c(OC)c2)CC1 (configuration not stated),inactive,
Cc1ccc2c(c1)C(=O)C(=O)N2CC(=O)OC(C)C,"inconclusive: 29.1 µM [cytotoxic, single point]",
CC1CCN(C(=O)CSc2nnc3ccc(-c4cccnc4)nn23)CC1,inactive,
Cc1ccc([C@H]2C[C@H](O)[C@@H](n3cc(-c4ccc(F)cc4)nn3)CN2Cc2cccs2)cc1,"inconclusive: 16.4 µM [cytotoxic, partial curve, poor fit]",
COc1ccc(C(O)c2nc(-c3ccc(Cl)cc3)cs2)cc1 (configuration not stated),"inconclusive: 20.6 µM [cytotoxic, single point]",
CCCCOC(=O)c1ccc(NC(=O)Nc2ccc(OC)c(OC)c2)cc1,"inconclusive: 29.1 µM [cytotoxic, single point]",
CC(=O)c1cn(CC(=O)Nc2ccccc2F)c2ccccc12,"inconclusive: 11.6 µM [cytotoxic, partial curve, poor fit]",
Cc1nn(C)cc1C(=O)Nc1cc(Oc2ccc(Cl)cc2)cc([N+](=O)[O-])c1,active: 20.6 µM,
Cn1ccc(C(=O)OCC(=O)Nc2ccccc2Cl)n1,"inconclusive: 11.6 µM [cytotoxic, partial curve, poor fit]",
Cc1cc(C)nc(/N=C(\N)Nc2ccc(SC(F)F)cc2)n1,"inconclusive: 18.4 µM [cytotoxic, single point]",
COc1ccc2cc3cc(C(=O)NCc4ccco4)oc3nc2c1,"inconclusive: 29.1 µM [cytotoxic, single point]",
CC(C)(C)NC(=O)c1cc(-c2ccc3c(c2)OCO3)nc2ccccc12,"inconclusive: 10.3 µM [rising, partial curve]",
COC(=O)Nc1ccc(S(=O)(=O)N2c3ccccc3CCC2C)cc1 (configuration not stated),active: 7.31 µM,
C[C@@H](NC(=O)[C@H]1O[C@@H](n2cnc3c(N)ncnc32)[C@H](O)[C@@H]1O)c1cccc2ccccc12,inactive,
CCCN1C(=S)SC(C)(C)C1/[N+]([O-])=C/c1cccnc1 (configuration not stated),"inconclusive: 0.0058 µM [rising, full curve]",
COc1ccc(OC)c2c(/C=C/c3c(C)[nH]c4ccccc34)ccnc12,"inconclusive: 29.1 µM [cytotoxic, single point]",

# 3 of the compounds above, bar-delimited.
Structure (SMILES) | Potency | activity change, negative = cytotoxic
CC1CCN(C(=O)CSc2nnc3ccc(-c4cccnc4)nn23)CC1 | inactive | 
Cc1ccc([C@H]2C[C@H](O)[C@@H](n3cc(-c4ccc(F)cc4)nn3)CN2Cc2cccs2)cc1 | inconclusive: 16.4 µM [cytotoxic, partial curve, poor fit] | 
COc1ccc(C(O)c2nc(-c3ccc(Cl)cc3)cs2)cc1 (configuration not stated) | inconclusive: 20.6 µM [cytotoxic, single point] | 
